{
  "sequences": {"note": "By UniProt entry, the sequences of proteins in these tests, tags left out. Where a name states a change or a piece, a line headed by the entry shows the natural chain unless it says otherwise.", "UniProt P49748": "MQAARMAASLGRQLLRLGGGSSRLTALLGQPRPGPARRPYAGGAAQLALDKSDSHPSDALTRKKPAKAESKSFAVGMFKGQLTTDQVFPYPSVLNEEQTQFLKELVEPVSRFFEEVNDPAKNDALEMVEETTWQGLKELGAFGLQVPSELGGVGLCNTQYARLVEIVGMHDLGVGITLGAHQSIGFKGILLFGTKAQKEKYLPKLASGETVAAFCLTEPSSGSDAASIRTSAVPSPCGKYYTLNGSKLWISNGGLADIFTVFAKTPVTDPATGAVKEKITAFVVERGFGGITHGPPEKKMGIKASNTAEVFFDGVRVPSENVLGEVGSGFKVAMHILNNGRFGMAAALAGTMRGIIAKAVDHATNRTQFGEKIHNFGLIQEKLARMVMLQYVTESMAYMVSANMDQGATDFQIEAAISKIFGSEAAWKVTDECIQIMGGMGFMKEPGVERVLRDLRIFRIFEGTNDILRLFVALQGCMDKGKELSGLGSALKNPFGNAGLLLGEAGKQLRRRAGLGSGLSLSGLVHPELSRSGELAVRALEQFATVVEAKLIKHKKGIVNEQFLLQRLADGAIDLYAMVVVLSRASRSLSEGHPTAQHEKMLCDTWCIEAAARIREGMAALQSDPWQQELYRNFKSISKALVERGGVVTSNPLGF", "UniProt O15254": "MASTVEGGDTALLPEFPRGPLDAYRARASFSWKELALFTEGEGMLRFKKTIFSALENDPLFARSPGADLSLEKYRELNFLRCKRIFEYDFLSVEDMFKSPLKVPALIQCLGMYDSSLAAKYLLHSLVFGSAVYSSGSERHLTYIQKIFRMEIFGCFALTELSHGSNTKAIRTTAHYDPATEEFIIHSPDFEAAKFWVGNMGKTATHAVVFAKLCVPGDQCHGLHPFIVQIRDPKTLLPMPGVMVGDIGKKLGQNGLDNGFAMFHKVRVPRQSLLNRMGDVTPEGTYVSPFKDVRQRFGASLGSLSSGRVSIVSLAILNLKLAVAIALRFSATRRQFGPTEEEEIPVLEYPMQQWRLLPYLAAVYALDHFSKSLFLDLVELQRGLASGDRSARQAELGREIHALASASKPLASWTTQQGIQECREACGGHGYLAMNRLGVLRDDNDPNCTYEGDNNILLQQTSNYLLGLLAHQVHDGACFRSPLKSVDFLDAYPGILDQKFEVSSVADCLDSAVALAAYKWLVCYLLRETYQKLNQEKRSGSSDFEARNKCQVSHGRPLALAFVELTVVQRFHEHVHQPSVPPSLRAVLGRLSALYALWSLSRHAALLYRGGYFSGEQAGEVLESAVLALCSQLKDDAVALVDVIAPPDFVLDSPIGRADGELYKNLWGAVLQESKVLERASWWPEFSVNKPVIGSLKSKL", "UniProt Q04771": "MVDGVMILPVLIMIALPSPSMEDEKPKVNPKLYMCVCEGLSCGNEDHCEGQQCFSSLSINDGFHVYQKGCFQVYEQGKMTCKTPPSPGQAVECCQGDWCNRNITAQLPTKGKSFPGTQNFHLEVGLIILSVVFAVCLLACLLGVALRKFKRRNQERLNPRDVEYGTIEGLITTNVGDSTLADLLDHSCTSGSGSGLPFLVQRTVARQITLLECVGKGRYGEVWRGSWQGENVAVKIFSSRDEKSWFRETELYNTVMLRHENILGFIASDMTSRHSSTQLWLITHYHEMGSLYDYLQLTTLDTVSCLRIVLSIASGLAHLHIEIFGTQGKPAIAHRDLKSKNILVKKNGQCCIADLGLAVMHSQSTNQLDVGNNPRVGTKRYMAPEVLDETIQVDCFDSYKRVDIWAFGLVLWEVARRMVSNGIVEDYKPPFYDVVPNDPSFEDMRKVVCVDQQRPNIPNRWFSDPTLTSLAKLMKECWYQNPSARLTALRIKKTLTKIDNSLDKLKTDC", "UniProt Q6PD74": "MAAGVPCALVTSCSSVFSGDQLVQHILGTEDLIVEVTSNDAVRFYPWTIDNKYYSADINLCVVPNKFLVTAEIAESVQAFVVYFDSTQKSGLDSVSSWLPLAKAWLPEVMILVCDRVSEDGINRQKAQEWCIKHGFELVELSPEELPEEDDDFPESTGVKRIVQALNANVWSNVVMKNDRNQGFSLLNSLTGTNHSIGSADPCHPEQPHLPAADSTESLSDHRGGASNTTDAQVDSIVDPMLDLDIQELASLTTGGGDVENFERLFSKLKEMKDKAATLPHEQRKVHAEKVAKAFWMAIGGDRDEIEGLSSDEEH", "UniProt P11117": "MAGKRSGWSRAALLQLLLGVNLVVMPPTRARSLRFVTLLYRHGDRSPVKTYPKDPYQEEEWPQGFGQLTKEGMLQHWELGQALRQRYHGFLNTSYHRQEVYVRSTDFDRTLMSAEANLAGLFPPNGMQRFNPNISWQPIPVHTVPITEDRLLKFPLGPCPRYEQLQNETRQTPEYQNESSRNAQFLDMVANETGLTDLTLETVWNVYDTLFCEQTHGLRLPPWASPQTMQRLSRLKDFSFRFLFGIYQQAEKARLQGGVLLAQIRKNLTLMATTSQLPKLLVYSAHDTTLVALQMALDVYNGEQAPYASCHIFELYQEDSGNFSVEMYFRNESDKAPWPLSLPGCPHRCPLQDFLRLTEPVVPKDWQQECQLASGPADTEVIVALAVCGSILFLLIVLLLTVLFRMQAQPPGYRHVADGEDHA", "UniProt Q9BTE6": "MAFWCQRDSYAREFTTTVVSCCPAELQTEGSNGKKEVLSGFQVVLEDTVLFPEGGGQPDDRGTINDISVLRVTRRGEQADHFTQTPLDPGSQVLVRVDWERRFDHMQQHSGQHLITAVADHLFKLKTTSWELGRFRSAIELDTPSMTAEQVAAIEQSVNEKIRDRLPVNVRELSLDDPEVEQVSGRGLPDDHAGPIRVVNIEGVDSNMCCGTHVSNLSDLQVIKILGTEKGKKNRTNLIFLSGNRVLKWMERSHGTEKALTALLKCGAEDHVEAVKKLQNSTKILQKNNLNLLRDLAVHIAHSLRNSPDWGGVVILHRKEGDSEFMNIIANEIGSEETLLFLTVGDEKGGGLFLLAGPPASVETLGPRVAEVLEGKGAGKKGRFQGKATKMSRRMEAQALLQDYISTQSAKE", "UniProt Q8NFV4": "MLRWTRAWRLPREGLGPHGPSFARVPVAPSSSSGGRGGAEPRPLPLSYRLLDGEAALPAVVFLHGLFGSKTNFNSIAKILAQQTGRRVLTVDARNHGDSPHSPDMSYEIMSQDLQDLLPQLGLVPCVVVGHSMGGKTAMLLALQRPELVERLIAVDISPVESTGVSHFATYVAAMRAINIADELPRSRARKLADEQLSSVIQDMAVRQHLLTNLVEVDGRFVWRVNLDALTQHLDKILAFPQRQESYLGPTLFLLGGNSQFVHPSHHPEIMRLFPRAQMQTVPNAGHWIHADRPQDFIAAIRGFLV", "UniProt P14621": "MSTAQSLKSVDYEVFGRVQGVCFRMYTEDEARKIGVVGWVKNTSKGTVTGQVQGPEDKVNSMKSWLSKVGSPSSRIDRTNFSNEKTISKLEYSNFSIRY", "UniProt P11310": "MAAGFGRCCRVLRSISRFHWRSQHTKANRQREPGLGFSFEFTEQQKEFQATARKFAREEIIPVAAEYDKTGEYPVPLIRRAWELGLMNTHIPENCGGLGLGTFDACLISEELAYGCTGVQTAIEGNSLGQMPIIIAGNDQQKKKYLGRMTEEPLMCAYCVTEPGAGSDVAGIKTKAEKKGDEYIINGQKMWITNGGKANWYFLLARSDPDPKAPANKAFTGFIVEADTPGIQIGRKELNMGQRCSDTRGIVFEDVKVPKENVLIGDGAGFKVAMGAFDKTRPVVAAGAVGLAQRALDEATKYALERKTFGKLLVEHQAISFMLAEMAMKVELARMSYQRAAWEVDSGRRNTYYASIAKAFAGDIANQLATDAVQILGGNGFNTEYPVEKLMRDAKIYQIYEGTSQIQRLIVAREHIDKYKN", "UniProt Q562R1, whole entry, looked up": "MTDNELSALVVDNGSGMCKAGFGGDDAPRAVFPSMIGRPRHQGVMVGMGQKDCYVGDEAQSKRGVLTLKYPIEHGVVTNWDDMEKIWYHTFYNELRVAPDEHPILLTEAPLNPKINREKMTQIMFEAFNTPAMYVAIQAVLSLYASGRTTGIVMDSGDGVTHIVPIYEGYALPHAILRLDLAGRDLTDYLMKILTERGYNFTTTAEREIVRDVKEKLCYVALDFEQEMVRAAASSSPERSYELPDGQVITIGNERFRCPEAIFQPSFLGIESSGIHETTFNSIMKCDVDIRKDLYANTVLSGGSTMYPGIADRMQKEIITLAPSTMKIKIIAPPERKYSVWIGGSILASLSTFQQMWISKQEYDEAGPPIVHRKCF", "UniProt P42025, whole entry, looked up": "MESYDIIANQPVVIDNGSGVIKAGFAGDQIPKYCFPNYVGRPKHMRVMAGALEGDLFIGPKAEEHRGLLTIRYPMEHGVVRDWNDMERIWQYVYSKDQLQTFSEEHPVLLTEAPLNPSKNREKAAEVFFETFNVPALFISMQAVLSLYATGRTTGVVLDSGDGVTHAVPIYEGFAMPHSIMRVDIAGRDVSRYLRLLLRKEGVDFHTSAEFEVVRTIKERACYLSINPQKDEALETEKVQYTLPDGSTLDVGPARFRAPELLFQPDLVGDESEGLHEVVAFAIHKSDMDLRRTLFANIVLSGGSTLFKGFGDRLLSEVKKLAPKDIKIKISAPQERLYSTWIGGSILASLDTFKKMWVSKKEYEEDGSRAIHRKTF", "UniProt A8K2U0": "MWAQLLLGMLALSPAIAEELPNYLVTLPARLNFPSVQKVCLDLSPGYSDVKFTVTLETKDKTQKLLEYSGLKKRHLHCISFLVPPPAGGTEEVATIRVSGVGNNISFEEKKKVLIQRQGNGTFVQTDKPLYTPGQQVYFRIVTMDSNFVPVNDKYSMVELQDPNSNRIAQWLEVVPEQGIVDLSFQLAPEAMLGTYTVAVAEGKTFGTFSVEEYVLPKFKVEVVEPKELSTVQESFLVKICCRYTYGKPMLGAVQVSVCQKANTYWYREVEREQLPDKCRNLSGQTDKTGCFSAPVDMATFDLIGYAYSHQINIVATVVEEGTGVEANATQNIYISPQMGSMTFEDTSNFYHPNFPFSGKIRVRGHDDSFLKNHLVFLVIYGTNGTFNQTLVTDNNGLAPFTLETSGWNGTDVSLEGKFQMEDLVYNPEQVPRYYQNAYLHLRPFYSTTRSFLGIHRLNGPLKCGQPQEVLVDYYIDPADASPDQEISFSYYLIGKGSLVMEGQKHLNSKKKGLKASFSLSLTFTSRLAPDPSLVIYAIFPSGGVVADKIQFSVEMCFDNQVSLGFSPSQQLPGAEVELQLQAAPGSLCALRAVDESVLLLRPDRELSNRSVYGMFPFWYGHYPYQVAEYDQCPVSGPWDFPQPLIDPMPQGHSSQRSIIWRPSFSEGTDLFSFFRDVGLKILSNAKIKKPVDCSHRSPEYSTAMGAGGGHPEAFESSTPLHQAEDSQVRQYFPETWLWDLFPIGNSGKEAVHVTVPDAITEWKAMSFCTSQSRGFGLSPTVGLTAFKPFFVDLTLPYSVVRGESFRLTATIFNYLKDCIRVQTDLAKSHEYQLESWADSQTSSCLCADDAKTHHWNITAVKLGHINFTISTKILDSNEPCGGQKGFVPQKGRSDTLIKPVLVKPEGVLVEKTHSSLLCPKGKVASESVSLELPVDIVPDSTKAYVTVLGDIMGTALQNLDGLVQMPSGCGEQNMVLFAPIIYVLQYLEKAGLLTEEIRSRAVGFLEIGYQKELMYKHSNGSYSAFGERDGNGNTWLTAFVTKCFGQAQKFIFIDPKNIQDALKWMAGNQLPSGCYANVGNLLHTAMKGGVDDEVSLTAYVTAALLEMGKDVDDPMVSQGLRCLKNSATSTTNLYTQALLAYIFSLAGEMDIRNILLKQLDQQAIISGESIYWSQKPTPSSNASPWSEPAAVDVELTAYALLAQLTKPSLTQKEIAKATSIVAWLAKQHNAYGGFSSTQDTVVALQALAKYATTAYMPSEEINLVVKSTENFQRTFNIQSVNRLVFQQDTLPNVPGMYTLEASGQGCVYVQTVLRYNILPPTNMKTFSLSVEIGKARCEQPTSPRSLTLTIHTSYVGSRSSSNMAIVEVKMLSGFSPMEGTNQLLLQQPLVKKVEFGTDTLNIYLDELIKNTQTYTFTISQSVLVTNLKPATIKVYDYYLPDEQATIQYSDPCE", "UniProt Q6UWZ7": "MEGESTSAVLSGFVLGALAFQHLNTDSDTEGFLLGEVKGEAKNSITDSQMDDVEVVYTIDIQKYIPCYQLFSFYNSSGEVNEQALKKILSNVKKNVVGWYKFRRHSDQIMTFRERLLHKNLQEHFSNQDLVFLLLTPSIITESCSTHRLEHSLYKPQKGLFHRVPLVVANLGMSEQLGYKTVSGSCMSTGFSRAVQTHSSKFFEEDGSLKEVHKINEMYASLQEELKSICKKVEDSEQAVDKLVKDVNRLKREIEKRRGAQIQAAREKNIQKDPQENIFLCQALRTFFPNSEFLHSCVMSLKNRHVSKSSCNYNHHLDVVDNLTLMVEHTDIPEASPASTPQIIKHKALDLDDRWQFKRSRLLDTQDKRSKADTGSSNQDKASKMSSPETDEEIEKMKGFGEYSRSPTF"},
  "source": "the supplement of paper PMC10849652",
  "note": "The other results are listed elsewhere or left out.",
  "data": [
    {"compound": "CC[C@@H]1C(=O)N(C)c2cnc(Nc3ccc(C(=O)N[C@H]4CC[C@H](N5CCN(CC6CC6)CC5)CC4)cc3OC)nc2N1C(C)C [volasertib]", "test": "log2 fold change, soluble protein after heating vs DMSO (PISA); higher = thermal stabilisation; K562 cells, 10 uM, 30 min; active = over 0.2 and 3.5 SD of the protein, either way, in both replicates (recomputed)", "outline": "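K562 cells at 2×10^6 cells/mL were treated with 10 μM compound for 30 min. Aliquots were heated for 3 min across 48°C-58°C, pooled, and extracted in PBS with 0.5% NP-40 at 4°C; soluble protein was the supernatant after 21,000xg for 90 min. Soluble protein was quantified by TMTpro 16plex LC-MS/MS with channel sums equalised, and reported as log2 fold change in thermal stability against DMSO controls, with values from duplicates.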", "values": [
      {"target": "ACSF3 (UniProt Q4G176)", "log2 fold change": "inactive: -0.093"},
      {"target": "ACAT1, A0A5F9ZHJ0", "log2 fold change": "inactive: 0.105"},
      {"target": "AAMP (UniProt Q13685)", "log2 fold change": "inactive: 0.051"},
      {"target": "ACADVL isoform 3 (UniProt P49748)", "log2 fold change": "inactive: 0.099"},
      {"target": "ACSL1 (UniProt P33121)", "log2 fold change": "inactive: -0.183"},
      {"target": "ACOX3 (UniProt O15254)", "log2 fold change": "inactive: 0.028"},
      {"target": "ABCB4 (UniProt P21439)", "log2 fold change": "inactive: 0.108"},
      {"target": "ABCA3 (UniProt Q99758)", "log2 fold change": "inactive: -0.093"},
      {"target": "ACVR1 (UniProt Q04771)", "log2 fold change": "inactive: -0.2"},
      {"target": "AAGAB (UniProt Q6PD74)", "log2 fold change": "active: -0.551"},
      {"target": "ACP2 (UniProt P11117)", "log2 fold change": "inactive: -0.151"},
      {"target": "ABHD6 (UniProt Q9BV23)", "log2 fold change": "inactive: 0.723"},
      {"target": "ACACB (UniProt O00763)", "log2 fold change": "inactive: -0.468"},
      {"target": "AAR2 (UniProt Q9Y312)", "log2 fold change": "inactive: -0.016"},
      {"target": "ACP1 (UniProt P24666)", "log2 fold change": "inactive: -0.102"},
      {"target": "ACO2 (UniProt Q99798)", "log2 fold change": "inactive: 0.037"},
      {"target": "ACIN1 (UniProt Q9UKV3)", "log2 fold change": "inactive: -0.056"},
      {"target": "AARSD1 (UniProt Q9BTE6)", "log2 fold change": "inactive: -0.227"},
      {"target": "ADAMTS13 (UniProt Q76LX8)", "log2 fold change": "inactive: 0.049"},
      {"target": "ABHD11 (UniProt Q8NFV4)", "log2 fold change": "inactive: -0.127"},
      {"target": "ACTN4 (UniProt K7EJH8)", "log2 fold change": "inactive: -0.018"},
      {"target": "ABHD16A (UniProt O95870)", "log2 fold change": "inactive: 0.079"},
      {"target": "ACYP2 (UniProt P14621)", "log2 fold change": "inactive: 0.153"},
      {"target": "ACADM isoform 2 (UniProt P11310)", "log2 fold change": "inactive: -0.03"},
      {"target": "ABITRAM (UniProt Q9NX38)", "log2 fold change": "inactive: -0.11"},
      {"target": "AAK1 (UniProt Q2M2I8)", "log2 fold change": "inactive: 0.121"},
      {"target": "AARSD1 isoform 3 (UniProt Q9BTE6)", "log2 fold change": "active: -0.27"},
      {"target": "ACTBL2 (UniProt Q562R1)", "log2 fold change": "inactive: 0.153"},
      {"target": "ACTG1 (UniProt K7EM38)", "log2 fold change": "inactive: -1.63"},
      {"target": "ACTR1B (UniProt P42025)", "log2 fold change": "inactive: 0.048"},
      {"target": "AARS2 (UniProt Q5JTZ9)", "log2 fold change": "inactive: -0.199"},
      {"target": "A2ML1 (UniProt A8K2U0)", "log2 fold change": "inactive: -0.111"},
      {"target": "ACSL5 isoform 3 (UniProt Q9ULC5)", "log2 fold change": "inactive: -0.088"},
      {"target": "ACSS1 (UniProt Q9NUB1)", "log2 fold change": "inactive: -0.062"},
      {"target": "ABL1 isoform 2 (UniProt P00519)", "log2 fold change": "inactive: -0.173"},
      {"target": "ABRAXAS1 (UniProt Q6UWZ7)", "log2 fold change": "inactive: 0.07"},
      {"target": "ACAP2 (UniProt Q15057)", "log2 fold change": "inactive: -0.192"},
      {"target": "ACAA2 (UniProt K7ER88)", "log2 fold change": "inactive: 0"}
    ]}
  ]
}
